Experimental data reported in publication PMC11156899, “High-throughput screening unveils nitazoxanide as a potent PRRSV inhibitor by targeting NMRAL1” (Nature Communications, 2024).
These are yes or no findings as the source states them, for the method shown. Some binding calls cover weakened binding; strength is not graded here.

Sequences of proteins named here, by UniProt entry; tags and fusion partners are left off.
UniProt Q9HBL8: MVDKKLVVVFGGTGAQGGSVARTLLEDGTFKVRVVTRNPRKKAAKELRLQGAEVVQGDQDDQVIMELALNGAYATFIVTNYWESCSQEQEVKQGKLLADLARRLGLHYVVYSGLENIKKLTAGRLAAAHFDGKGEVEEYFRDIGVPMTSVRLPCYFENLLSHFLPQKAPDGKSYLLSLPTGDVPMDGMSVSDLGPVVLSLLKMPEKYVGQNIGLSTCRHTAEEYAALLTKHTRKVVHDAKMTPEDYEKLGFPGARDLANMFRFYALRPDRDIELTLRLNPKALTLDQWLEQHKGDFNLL

Target: NMRAL1 (endogenous, HEK-293T cells) (human (endogenous in HEK-293T)) (UniProt Q9HBL8)
Assay: SDS-PAGE and Western blot of the dimer band (CETSA-WB samples); HEK-293T cell lysate with 40 µM NTZ or DMSO, heated over a temperature range, soluble fraction blotted with anti-NMRAL1 antibody

binding: binds
Substance: NMRAL1 (endogenous, HEK-293T cells) (from UniProt Q9HBL8 1-299)
